Experimental data as given in patent US20080112955A1, “METHOD AND COMPOSITION FOR PREVENTING PAIN IN SICKLE CELL PATIENTS” (TRF PHARMA, INC., priority 2002, published 2008).
Some of these results come from one statement about several compounds together.

System: human umbilical vein endothelial cells (HUVECs)
Assay: static gravity adherence assay with dip rinse: erythrocyte adherence to endothelial monolayers
Assay type: cell-based
Details: range over sialidase (RBCs), mAb 9E1 (endothelial cells) and their combination
Procedure: Thrombin treatment of human umbilical vein endothelial cells (HUVECs) and the static gravity adherence assay with dip rinse were performed as previously described. When 90% confluent, HUVECs (Clonetics, San Diego, Calif.) were treated with 0.1 U/mL thrombin (Sigma Chemicals, St Louis, Mo.) or medium alone for 5 minutes before assaying erythrocyte adherence. Adherent RBCs were counted microscopically in 8 randomly selected 0.15-mm2 fields for each study condition. The adherence data may be presented as percent adherence where 100% is the mean adherence of nonsickle RBCs to untreated HUVECs.
Because of potential modulatory effects of heparin on adherence, the static adherence assay was used to compare the adhesivity of sickle cells and autologous plasma according to whether they were prepared with citrate anticoagulant or with heparin. […] The contribution of P-selectin to thrombin-enhanced adherence was determined by comparing the effects on adherence of exposing HUVECs to no antibody, a 1:200 dilution of nonblocking P-selectin monoclonal antibodies (mAbs) AC1.2 (BD Pharmingen, San Diego, Calif.), or a 1:200 dilution of blocking P-selectin mAb 9E1 (R & D Systems, Minneapolis, Minn.). […]
For each experiment mean adherence was set arbitrarily at 100% for the control data. […] The average of the means from replicate experiments was then calculated. […]

Substance: sialidase: Vibrio cholerae sialidase (Calbiochem) used to treat RBCs
- inhibition of adherence to thrombin-treated endothelial cells (nonsickle cells): 17%-24%
- inhibition of adherence to thrombin-treated endothelial cells (sickle cells): 29%-38%
